PubChem BioAssay AID686943, Drosophila RNAi Screening Center | 2013
In all, the deposit lists about 23,000 reagents; below is a random part of those that have a named target and a result. 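Extra replicates exist only for a retested subset of genes; insulin dose and duration not given; both raised and lowered dpERK matter.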 A plus sign joins genes that one reagent is predicted to hit. Further read-outs or replicates are left out here. Reagent sequences are not shown. Not given: the amount of reagent, the time to read-out.

Purpose: 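Search across the genome for regulators of signalling from receptor tyrosine kinase to ERK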 (primary screen)
Cells: Drosophila S2R+ haemocyte-like cells expressing YFP-tagged ERK (Rolled)
Reagents: long dsRNA against Drosophila genes
Challenge: insulin stimulation versus unstimulated cells; dose and duration not given
Detection: 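Antibody staining for doubly phosphorylated ERK divided by ERK-YFP signal, as plate z-scores, in insulin-treated and untreated cells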
Direction: replicate 1, z-score of dpERK with insulin and replicate 2, z-score of dpERK with insulin: higher = more active ERK per ERK-YFP after insulin

For CG2129 [DRSC18209] the deposit lists replicate 1, z-score of dpERK with insulin -0.4; replicate 2, z-score of dpERK with insulin 0.61.
After knock-down of CG11663 [DRSC17793], the screen gave replicate 1, z-score of dpERK with insulin -2.18; replicate 2, z-score of dpERK with insulin -2.45.
For CG34393 [DRSC00419] the deposit lists replicate 1, z-score of dpERK with insulin 0.03; replicate 2, z-score of dpERK with insulin -0.03.
CG34393 [DRSC00710] scored replicate 1, z-score of dpERK with insulin -0.07; replicate 2, z-score of dpERK with insulin 0.54.
Knock-down of CG13272 [DRSC02249] came out at: replicate 1, z-score of dpERK with insulin 0.16; replicate 2, z-score of dpERK with insulin -0.13.
After knock-down of CG13272 [DRSC22910], the screen gave replicate 1, z-score of dpERK with insulin 0.44; replicate 2, z-score of dpERK with insulin -0.31.
Nagk [DRSC15994] gave replicate 1, z-score of dpERK with insulin 0.38; replicate 2, z-score of dpERK with insulin 0.03.
Silencing of Tcs5 [DRSC09774] came out at: replicate 1, z-score of dpERK with insulin 0.09; replicate 2, z-score of dpERK with insulin 1.33.
Knock-down of lcs [DRSC20580] came out at: replicate 1, z-score of dpERK with insulin 0.46; replicate 2, z-score of dpERK with insulin 1.18.
Against rasp [DRSC08191], the values are replicate 1, z-score of dpERK with insulin 0.35; replicate 2, z-score of dpERK with insulin 0.11.
For DNAlig4 [DRSC19436], the entry reads replicate 1, z-score of dpERK with insulin -1.17; replicate 2, z-score of dpERK with insulin -0.49.
Against san [DRSC07695], the entry reads replicate 1, z-score of dpERK with insulin -0.08; replicate 2, z-score of dpERK with insulin 0.3.
With knock-down of Lcp9 [DRSC04287], the record shows replicate 1, z-score of dpERK with insulin -1.85; replicate 2, z-score of dpERK with insulin -1.45.
Pex19 [DRSC02839] scored replicate 1, z-score of dpERK with insulin 0.57; replicate 2, z-score of dpERK with insulin -0.53.
With knock-down of Su(var)3-3 [DRSC10250], the record shows replicate 1, z-score of dpERK with insulin -0.21; replicate 2, z-score of dpERK with insulin 0.15.
With knock-down of CG3168 [DRSC18287], the screen gave replicate 1, z-score of dpERK with insulin -0.17; replicate 2, z-score of dpERK with insulin 0.56.
tefu [DRSC16060] scored replicate 1, z-score of dpERK with insulin -0.72; replicate 2, z-score of dpERK with insulin -0.78.
Against Hsp27 [DRSC11190], the values are replicate 1, z-score of dpERK with insulin 0.57; replicate 2, z-score of dpERK with insulin 0.42.
After knock-down of CG10969 [DRSC09811], the record shows replicate 1, z-score of dpERK with insulin 0.08; replicate 2, z-score of dpERK with insulin 0.6.
After knock-down of Prosalpha2 [DRSC16798], the screen gave replicate 1, z-score of dpERK with insulin -1.64; replicate 2, z-score of dpERK with insulin -4.17.

Records listed so far whose target name begins with P or p:
Pex19 [DRSC02839] | replicate 1, z-score of dpERK with insulin = 0.57; replicate 2, z-score of dpERK with insulin = -0.53
Prosalpha2 [DRSC16798] | replicate 1, z-score of dpERK with insulin = -1.64; replicate 2, z-score of dpERK with insulin = -4.17

More reagents:
With knock-down of CG16985 [DRSC08501] the results were replicate 1, z-score of dpERK with insulin -0.49; replicate 2, z-score of dpERK with insulin -0.73.
LysD + LysC (retired record) [DRSC08674] gave replicate 1, z-score of dpERK with insulin 0.33; replicate 2, z-score of dpERK with insulin 0.47.
LysD + LysC (retired record) [DRSC22743] gave replicate 1, z-score of dpERK with insulin 0.28; replicate 2, z-score of dpERK with insulin -0.04.
Depletion of Larp7 [DRSC18798] came out at: replicate 1, z-score of dpERK with insulin -1.8; replicate 2, z-score of dpERK with insulin -1.31.
Depletion of CG10098 [DRSC12509] came out at: replicate 1, z-score of dpERK with insulin 0.16; replicate 2, z-score of dpERK with insulin -0.8.
Sec22 + CG13358 [DRSC18538] showed replicate 1, z-score of dpERK with insulin -0.95; replicate 2, z-score of dpERK with insulin -1.78.
Depletion of Usp32 [DRSC10979] came out at: replicate 1, z-score of dpERK with insulin 1.2; replicate 2, z-score of dpERK with insulin 1.42.
Against Kr-h2 [DRSC03356], the entry reads replicate 1, z-score of dpERK with insulin 0.15; replicate 2, z-score of dpERK with insulin -0.08.
Knock-down of kto [DRSC10983] came out at: replicate 1, z-score of dpERK with insulin 1.62; replicate 2, z-score of dpERK with insulin 1.4.
With knock-down of side-VI [DRSC12828], the screen gave replicate 1, z-score of dpERK with insulin -0.39; replicate 2, z-score of dpERK with insulin -0.43.
side-VI [DRSC12830] gave replicate 1, z-score of dpERK with insulin 1.15; replicate 2, z-score of dpERK with insulin 0.58.
side-VI [DRSC14920] gave replicate 1, z-score of dpERK with insulin -0.23; replicate 2, z-score of dpERK with insulin 0.11.
side-VI [DRSC15624] scored replicate 1, z-score of dpERK with insulin -0.85; replicate 2, z-score of dpERK with insulin -0.16.
Against CG32762 [DRSC18298], the entry reads replicate 1, z-score of dpERK with insulin 0.56; replicate 2, z-score of dpERK with insulin 0.01.
Cpr30F [DRSC02908] gave replicate 1, z-score of dpERK with insulin 0.52; replicate 2, z-score of dpERK with insulin 0.45.
For Tango8 [DRSC06474], the entry reads replicate 1, z-score of dpERK with insulin -1.94; replicate 2, z-score of dpERK with insulin -2.96.
Knock-down of Tie [DRSC08104] gave: replicate 1, z-score of dpERK with insulin -1.31; replicate 2, z-score of dpERK with insulin -0.01.
After knock-down of Tie [DRSC08702] the results were replicate 1, z-score of dpERK with insulin -0.32; replicate 2, z-score of dpERK with insulin 0.36.
Against Pka-C2 [DRSC16790] the deposit lists replicate 1, z-score of dpERK with insulin 0.5; replicate 2, z-score of dpERK with insulin -0.3.
After knock-down of GalT1 [DRSC22238], the screen gave replicate 1, z-score of dpERK with insulin 0.04; replicate 2, z-score of dpERK with insulin 0.34.
